Binding data for 2 substances are collected here from publication PMC12877406.

By UniProt entry, the sequences of proteins in these tests, tags left out. Residues count along the entry.
UniProt P46531, residues 19-2555: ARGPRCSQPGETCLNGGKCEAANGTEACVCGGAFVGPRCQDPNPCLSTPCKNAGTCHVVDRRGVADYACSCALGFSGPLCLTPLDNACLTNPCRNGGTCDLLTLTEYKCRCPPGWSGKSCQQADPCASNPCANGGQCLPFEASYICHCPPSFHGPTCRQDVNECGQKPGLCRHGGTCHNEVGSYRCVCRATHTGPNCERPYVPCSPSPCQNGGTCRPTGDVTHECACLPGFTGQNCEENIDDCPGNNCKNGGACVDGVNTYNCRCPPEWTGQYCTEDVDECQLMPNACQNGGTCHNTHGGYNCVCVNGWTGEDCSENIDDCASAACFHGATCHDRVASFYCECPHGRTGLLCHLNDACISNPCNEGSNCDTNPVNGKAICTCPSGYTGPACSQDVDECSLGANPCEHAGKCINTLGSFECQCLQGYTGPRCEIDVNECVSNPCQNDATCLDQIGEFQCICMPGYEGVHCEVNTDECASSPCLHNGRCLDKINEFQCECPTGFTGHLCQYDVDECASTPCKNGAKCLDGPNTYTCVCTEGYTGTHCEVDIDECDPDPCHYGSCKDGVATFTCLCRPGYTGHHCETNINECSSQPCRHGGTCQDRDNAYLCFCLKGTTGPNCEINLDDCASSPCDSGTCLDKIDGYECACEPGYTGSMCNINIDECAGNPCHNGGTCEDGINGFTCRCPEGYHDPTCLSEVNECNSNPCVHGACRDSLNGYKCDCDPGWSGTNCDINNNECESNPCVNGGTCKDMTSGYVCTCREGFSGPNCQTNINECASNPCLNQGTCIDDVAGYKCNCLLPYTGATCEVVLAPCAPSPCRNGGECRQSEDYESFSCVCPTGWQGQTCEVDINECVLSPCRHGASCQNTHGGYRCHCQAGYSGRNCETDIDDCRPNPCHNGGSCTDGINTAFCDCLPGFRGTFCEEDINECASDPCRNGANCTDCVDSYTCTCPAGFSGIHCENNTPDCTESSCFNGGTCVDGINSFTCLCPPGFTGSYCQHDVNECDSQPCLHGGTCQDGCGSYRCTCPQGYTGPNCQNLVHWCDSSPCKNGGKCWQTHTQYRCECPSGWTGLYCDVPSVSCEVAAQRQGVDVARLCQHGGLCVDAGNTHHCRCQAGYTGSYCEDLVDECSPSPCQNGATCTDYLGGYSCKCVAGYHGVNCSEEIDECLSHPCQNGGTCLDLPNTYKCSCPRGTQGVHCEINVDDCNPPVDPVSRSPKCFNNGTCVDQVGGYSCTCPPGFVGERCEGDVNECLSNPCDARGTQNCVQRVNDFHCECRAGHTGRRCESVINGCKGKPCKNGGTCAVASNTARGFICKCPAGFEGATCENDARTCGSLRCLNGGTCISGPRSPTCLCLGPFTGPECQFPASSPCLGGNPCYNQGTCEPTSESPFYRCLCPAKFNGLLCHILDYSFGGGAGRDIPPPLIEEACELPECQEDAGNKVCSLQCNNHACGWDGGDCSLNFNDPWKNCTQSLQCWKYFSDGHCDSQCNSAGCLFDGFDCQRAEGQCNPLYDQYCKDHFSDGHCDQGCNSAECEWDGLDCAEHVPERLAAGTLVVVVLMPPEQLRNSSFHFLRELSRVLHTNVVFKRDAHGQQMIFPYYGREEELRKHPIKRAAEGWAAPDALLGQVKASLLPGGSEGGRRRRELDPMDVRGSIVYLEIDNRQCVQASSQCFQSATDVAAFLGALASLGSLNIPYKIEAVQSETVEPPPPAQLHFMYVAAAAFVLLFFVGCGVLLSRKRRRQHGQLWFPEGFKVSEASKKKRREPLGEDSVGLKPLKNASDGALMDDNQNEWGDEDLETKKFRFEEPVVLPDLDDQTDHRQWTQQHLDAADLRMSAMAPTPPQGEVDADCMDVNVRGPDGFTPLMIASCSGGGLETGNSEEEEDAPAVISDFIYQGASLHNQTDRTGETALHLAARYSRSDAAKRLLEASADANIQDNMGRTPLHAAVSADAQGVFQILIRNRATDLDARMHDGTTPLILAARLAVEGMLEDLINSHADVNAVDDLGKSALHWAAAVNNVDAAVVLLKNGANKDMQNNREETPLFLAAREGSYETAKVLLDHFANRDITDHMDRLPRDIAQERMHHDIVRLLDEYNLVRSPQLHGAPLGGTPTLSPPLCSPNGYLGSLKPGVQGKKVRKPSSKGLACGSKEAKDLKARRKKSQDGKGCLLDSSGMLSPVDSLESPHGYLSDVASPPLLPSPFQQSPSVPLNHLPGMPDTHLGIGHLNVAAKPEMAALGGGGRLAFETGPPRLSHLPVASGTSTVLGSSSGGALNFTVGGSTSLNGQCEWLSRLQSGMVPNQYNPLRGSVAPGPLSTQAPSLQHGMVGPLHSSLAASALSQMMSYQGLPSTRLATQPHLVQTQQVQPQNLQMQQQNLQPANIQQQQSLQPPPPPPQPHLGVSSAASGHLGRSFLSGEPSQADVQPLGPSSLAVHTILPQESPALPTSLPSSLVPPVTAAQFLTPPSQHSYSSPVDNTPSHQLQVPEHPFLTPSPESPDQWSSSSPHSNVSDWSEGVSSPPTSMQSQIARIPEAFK
UniProt P07355: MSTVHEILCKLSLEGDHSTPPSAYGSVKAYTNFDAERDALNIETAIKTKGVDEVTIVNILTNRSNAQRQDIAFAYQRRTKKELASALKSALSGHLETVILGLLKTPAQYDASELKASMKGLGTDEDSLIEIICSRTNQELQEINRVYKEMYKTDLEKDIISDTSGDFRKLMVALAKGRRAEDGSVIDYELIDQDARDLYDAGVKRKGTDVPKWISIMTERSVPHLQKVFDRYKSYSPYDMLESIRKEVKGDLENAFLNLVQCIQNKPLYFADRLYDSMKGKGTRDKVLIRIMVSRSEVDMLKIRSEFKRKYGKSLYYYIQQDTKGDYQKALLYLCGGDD
UniProt Q03135: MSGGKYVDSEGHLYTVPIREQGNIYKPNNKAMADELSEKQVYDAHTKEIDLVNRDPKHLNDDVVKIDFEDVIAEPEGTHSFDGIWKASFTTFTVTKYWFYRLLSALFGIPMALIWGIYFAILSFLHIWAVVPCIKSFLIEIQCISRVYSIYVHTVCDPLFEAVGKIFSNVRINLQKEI

These are yes or no findings as the source states them, for the method shown. In cells and extracts the contact can be indirect. Some results given as binding are weak or reduced against the parent protein; the word gives no strength.

In this experiment the target is Notch1 (human (endogenous in hdBECs)) (UniProt P46531). Briefly: co-IP; immunoprecipitation of endogenous Notch1 with primary antibody (1.5 ug per mg of lysate protein, 2 h, 4°C) and Protein A/G beads from hdBEC lysates (static or flow); IP lysis buffer pH 7.4, 25 mM Tris, 150 mM NaCl, 5 mM MgCl2, 1% Triton X-100; Western blot.

As for annexin A2 (from UniProt P07355 1-339), the binding result is listed as “binds”.

caveolin-1 (from UniProt Q03135 1-178): the binding result is “binds”.
